In PubChem BioAssay AID540256 (National Center for Advancing Translational Sciences (NCATS), 2011):
The whole screen tested about 300,000 compounds, of which about 3,700 (1.2%) were called active. Inconclusive results, whose numbers are uncertain, are shown with a selection of clear calls. Calls follow the shape of the full dose curve; tested in HEK293 cells. Potencies beside an inconclusive call are fits to weak or partial responses and may not hold up.

Experiment: qHTS for Inhibitors of binding or entry into cells for Lassa Virus; also: nearly all actives have a fitted effect of over 50% in size
Details: Lassa virus pseudotype entry inhibition, cell reporter; activity change, negative = inhibition: at 37.9 µM (top of the series) unless noted
% is scaled to controls: 0 for no effect and ±100 for the full control effect; potency is read from the fitted curve at half-maximal effect.

SMILES	activity change, negative = inhibition	Potency
C=Cc1ccc(CN2C(=O)N(c3cccc(Cl)c3)S(=O)(=O)c3ccccc32)cc1	inactive: -7.35% [at 46.1 µM]	–
CC(C)c1ccc(C(=O)NCCCc2ccccc2)cc1	–	inconclusive: 4.11 µM [activator, single point]
CCN(C(=O)COC(=O)c1ccc(S(=O)(=O)N2CCCc3ccccc32)cc1)C1CCS(=O)(=O)C1 (stereo not drawn)	–	inconclusive: 10 µM [inhibitor, partial curve]
Oc1c(Cl)cc(Cl)cc1C=Nc1ccc2c(c1)OCCO2	–	inconclusive: 23.1 µM [inhibitor, single point]
COc1nc(OCC#N)nc(N2CCCCC2)n1	inactive: -3.49%	–
COCC(C)NS(=O)(=O)c1ccc(C(=O)NC(Cc2ccccc2)c2ccccc2)cc1 (stereo not drawn)	–	inconclusive: 35.5 µM [inhibitor, single point]
Cc1cc2c(N3CCCCC3C)ncnc2s1 (stereo not drawn)	–	inconclusive: 7.08 µM [inhibitor, partial curve, poor fit]
C/C(=N\NC(=O)C1CCCN(S(=O)(=O)c2ccccc2)C1)c1ccccn1 (stereo not drawn)	–	inconclusive: 5.01 µM [inhibitor, partial curve, poor fit]
CCCCN1CC(N2CCN(CCO)CC2)CS1(=O)=O (stereo not drawn)	–	inconclusive: 12.5 µM [activator, partial curve, poor fit]
COc1cccc(C(=O)OCCNC(=O)c2cccnc2)c1	inactive: 19.8%	–
COc1cccc(N2CCN(C(=O)c3cc(C)oc3C)CC2)c1	–	inconclusive: 12.6 µM [inhibitor, partial curve, poor fit]
CCC1=Nc2cc(C(=O)NC3CCCC3)ccc2Sc2ccc(Br)cc21	–	inconclusive: 11.2 µM [inhibitor, partial curve, poor fit]
COc1ccc(N2CCN(C(=O)c3ccc4c(c3)CC(c3ccccc3)OC4=O)CC2)cc1 (stereo not drawn)	–	inconclusive: 35.5 µM [inhibitor, single point]
O=C(CSc1cccc[n+]1[O-])Nc1ccc2c(c1)OCCO2	–	inconclusive: 20 µM [activator, single point]
Cc1cc(C)nc(CCNC(=O)c2cc(COc3c(F)cccc3F)on2)n1	–	inconclusive: 3.55 µM [inhibitor, partial curve, poor fit]
CC1=Nc2ccccc2/C1=C/c1c(N)n2c(S(=O)(=O)CC(C)C)nsc2nc1=O	inactive: 4.38% [at 46.1 µM]	–
Cc1ccc(-c2noc(CSc3nnc(CCc4ccccc4)n3-c3ccccc3)n2)cc1	–	inconclusive: 14.6 µM [inhibitor, partial curve, poor fit]
O=C(Nc1ncc(Cc2cc(Cl)ccc2Cl)s1)c1ccc([N+](=O)[O-])cc1	–	inconclusive: 14.6 µM [inhibitor, partial curve, poor fit]
C=CCOc1ccc2nc(NC(=O)OC)[nH]c2c1	–	inconclusive: 8.2 µM [inhibitor, partial curve, poor fit]
CCOC(=O)Cn1nnnc1CN(Cc1ccccc1)Cc1cc2cc(CC)ccc2[nH]c1=O	–	inconclusive: 23.1 µM [inhibitor, partial curve, poor fit]
CCC(C)(C)NC(=O)CN(C(=O)CCC(=O)Nc1cc(C)ccn1)c1ccc2c(c1)OCO2	–	inconclusive: 10 µM [inhibitor, partial curve]

SMILES	activity change, negative = inhibition	Potency
Cc1ccc(C(=O)NC(C(=O)NC2CCCC2)c2ccccc2)cc1 (stereo not drawn)	inactive: -7.7% [at 46.1 µM]	–
COc1cc(OC)c(C(=O)OCC(=O)N(Cc2ccccc2)C(C)(C)C)cc1OC	–	inconclusive: 1.26 µM [activator, single point]
N=c1c2c(ncn1Cc1ccco1)Oc1ccc3ccccc3c1C2c1ccccc1 (stereo not drawn)	–	inconclusive: 17.8 µM [inhibitor, single point]
CCOC(=O)c1ccc(Nc2ncnc3c2cnn3-c2cccc(Cl)c2)cc1	–	inconclusive: 35.5 µM [activator, single point]
Cc1cccc(C(=O)N2CCC(=O)N(C(COCc3ccc(Cl)cc3)Cc3ccccc3)CC2)c1 (stereo not drawn)	–	active: 10.3 µM
COc1ccc2[nH]c(=O)c(CNc3cccc(C)c3)cc2c1	–	inconclusive: 7.08 µM [inhibitor, partial curve, poor fit]
COc1cc(/C=C2\SC(=N)N(c3ccc(F)cc3)C2=O)ccc1O	–	inconclusive: 17.8 µM [inhibitor, single point]
C=CCn1cccc(C(=O)Nc2ccc(C)c(Cl)c2)c1=O	–	inconclusive: 20 µM [activator, partial curve, poor fit]
CC1Cc2cc(S(=O)(=O)NCc3ccccc3Cl)ccc2N1C(=O)C1CCC1 (stereo not drawn)	–	inconclusive: 35.5 µM [inhibitor, single point]
Cc1ccc(C(=O)N/N=C\c2cccc(OC(=O)c3cccc(F)c3)c2)cn1	inactive: -5.75%	–
O=C1C=CCC(/C=C/c2ccccc2)O1 (stereo not drawn)	–	inconclusive: 5.8 µM [inhibitor, partial curve]
Cc1cc(C(=O)N2CCc3c([nH]c4ccccc34)C2c2c(F)cccc2Cl)no1 (stereo not drawn)	–	inconclusive: 35.5 µM [inhibitor, single point]
CC1CN(c2nc3c(c(=O)n(Cc4ccc(Cl)c(Cl)c4)c(=O)n3C)n2C)CC(C)O1 (stereo not drawn)	–	inconclusive: 7.3 µM [inhibitor, single point]
CC1CCCN(CCCOc2ccc(Br)cc2Cl)C1 (stereo not drawn)	–	inconclusive: 15.8 µM [inhibitor, partial curve, poor fit]
CC(C)(C)c1ccc(C(=O)N2CCC(C(=O)c3ccccc3)CC2)cc1	–	inconclusive: 8.91 µM [inhibitor, single point]
O=C(Nc1cccc2ccccc12)OCc1cncs1	–	inconclusive: 2.82 µM [inhibitor, partial curve, poor fit]
O=C(CN1C(=O)/C(=C/c2cccc(Cl)c2)SC1=S)NC1C=CS(=O)(=O)C1 (stereo not drawn)	–	inconclusive: 35.5 µM [inhibitor, single point]
O=C(Nc1nc2ccccc2n1Cc1ccc(Cl)cc1)c1ccco1	–	inconclusive: 23.1 µM [inhibitor, single point]
OC(COCC(F)(F)C(F)(F)C(F)(F)C(F)F)Cn1c2ccccc2c2ccccc21 (stereo not drawn)	–	inconclusive: 29.1 µM [inhibitor, single point]
Cn1cnnc1SCc1ccccc1	inactive: 7.17%	–
CCc1ccc(-c2nc(CS(=O)CC(=O)NCCN3CCCCCC3)c(C)o2)cc1 (stereo not drawn)	–	inconclusive: 12.6 µM [activator, single point]

SMILES	activity change, negative = inhibition	Potency
COc1ccccc1-c1cc(C(=O)NC2CCN(C)CC2)c2ccc(Cl)c(C)c2n1	–	inconclusive: 35.5 µM [activator, single point]
Cn1c(N=Nc2ccccc2)nc2ccccc21	–	inconclusive: 1 µM [activator, partial curve, poor fit]
CCCCN1CCCc2cc(CN(CCCN3CCOCC3)C(=O)Nc3ccc(OCC)cc3)ccc21	–	inconclusive: 10 µM [inhibitor, partial curve]
Cc1ccc(C(=O)Nc2nc3ccccc3s2)s1	–	inconclusive: 18.3 µM [inhibitor, single point]
CCCCC(=O)NC(c1ccc(Cl)cc1)c1ccc2cccnc2c1O (stereo not drawn)	–	inconclusive: 5.62 µM [inhibitor, full curve, poor fit]
CC(NC(=O)C(=O)NN=C1CCCCCC1)c1ccccc1 (stereo not drawn)	–	inconclusive: 4.47 µM [activator, full curve, poor fit]
CNc1ccccc1C(=O)OCC(=O)N1CCN(c2ccc(OC)cc2)CC1	–	inconclusive: 35.5 µM [inhibitor, single point]
COc1ccccc1NC(=O)/C(=C/c1cccs1)NC(=O)c1ccco1	inactive: 23.1%	–
O=C(c1ccc2c(c1)N(Cc1ccccc1F)C(=O)c1ccccc1S2=O)N1CCN(c2ccccc2)CC1 (stereo not drawn)	–	inconclusive: 25.1 µM [inhibitor, single point]
Cc1ccc(NC(=O)CN2CCN(CCN=CC3=C(O)CC(c4ccc(C)cc4)CC3=O)CC2)cc1 (stereo not drawn)	–	inconclusive: 8.91 µM [inhibitor, partial curve, poor fit]
O=C(Nc1cc(N2CCOCC2)ncn1)c1ccc(F)cc1	inconclusive: 5.34% [activator]	–
S=C(NC1CCCCC1)N1CCn2cccc2C1c1cccnc1 (stereo not drawn)	–	inconclusive: 12.6 µM [inhibitor, partial curve, poor fit]
CCN(CC)S(=O)(=O)c1cc(C(=O)Nc2cc(S(=O)(=O)N3CCOCC3)ccc2N2CCCC2)ccc1F	–	inconclusive: 14.1 µM [inhibitor, single point]
CCc1c(C)nc2nncn2c1Nc1ccc(C(C)C)cc1	inactive: -8.76% [at 46.1 µM]	–
Cc1cnc(CNC(=O)C2CCC(=O)N(CCc3ccc(Cl)cc3)C2)cn1 (stereo not drawn)	–	inconclusive: 35.5 µM [activator, single point]
CCN(C(=O)COC(=O)CCS(=O)(=O)c1ccc(C)cc1)C1CCS(=O)(=O)C1 (stereo not drawn)	–	inconclusive: 5.62 µM [activator, single point]
CCCCc1ccccc1NC(=S)NC1CCCC1	–	inconclusive: 0.562 µM [inhibitor, full curve, poor fit]
CC(=O)Nc1c(C(=O)N2CCOCC2)cnn1-c1ccc(C)c(C)c1	inactive: 10.1%	–
CCN(CC)c1ccc(C(=O)N2CCC(c3c[nH]c4ccccc34)(c3c[nH]c4ccccc34)CC2)cc1	–	inconclusive: 1.12 µM [inhibitor, full curve, poor fit]
CCc1nn2c(=O)cc(COC(=O)c3ccc(SC)cc3OC)nc2s1	inactive: 4.22%	–
O=C(CN(C(=O)c1ccc(Cl)cc1)C1CCCCC1)Nc1ccc(Cl)c([N+](=O)[O-])c1	–	inconclusive: 17.8 µM [inhibitor, single point]

A run of entries from further up, as a working copy:
SMILES	activity change, negative = inhibition	Potency
O=C(Nc1ncc(Cc2cc(Cl)ccc2Cl)s1)c1ccc([N+](=O)[O-])cc1	–	inconclusive: 14.6 µM [inhibitor, partial curve, poor fit]
C=CCOc1ccc2nc(NC(=O)OC)[nH]c2c1	–	inconclusive: 8.2 µM [inhibitor, partial curve, poor fit]
CCOC(=O)Cn1nnnc1CN(Cc1ccccc1)Cc1cc2cc(CC)ccc2[nH]c1=O	–	inconclusive: 23.1 µM [inhibitor, partial curve, poor fit]
CCC(C)(C)NC(=O)CN(C(=O)CCC(=O)Nc1cc(C)ccn1)c1ccc2c(c1)OCO2	–	inconclusive: 10 µM [inhibitor, partial curve]
